# Data taken from PubChem BioAssay AID2685 (National Center for Advancing Translational Sciences (NCATS), 2010).
# The list shows a part of the results. These are further read-outs of the screen, such as a control signal, another cell line or another target. No call is given for them. Most of these compounds were active or inconclusive in the main read-out, so they are no random draw. Words in brackets tell the shape of the fitted curve; partial curves, single points and poor fits give uncertain potencies.
# Assay: qHTS Assay for Lipid Storage Modulators in Drosophila S3 Cells;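 on cell number change: cells counted by Cell Tracker Red CMTPX staining in the red channel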
# Conditions: BODIPY lipid droplet fluorescence, 18-24 h; for cell number change: measured here: cell count max response, cells fed with added oleic acid
# Procedure, shortened: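 Laser-scanning cytometry quantifies lipid droplet accumulation (500–530 nm total intensity; droplet/cell object ratio) in oleic acid-fed (400 uM added) Drosophila S3 cells treated with a concentration series. 20 uM Triacsin C defined 100% inhibition.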
# [1] = measured here: cell number channel AC50, cells fed with added oleic acid
# [2] = measured here: lipid fluorescence (Fed channel) AC50, cells fed with added oleic acid
SMILES,cell number change,AC50 [1],AC50 [2]
CC(=O)c1cccc(NC(=S)NNC(=O)c2ccc(C)c([N+](=O)[O-])c2)c1,123%,"29.1 µM [rising, single point]",–
O=C(COC(=O)/C=C/c1cccc([N+](=O)[O-])c1)NCC1CCCO1 (stereo unspecified),-40.3%,"14.6 µM [falling, partial curve]",–
Cc1ccc(C(=O)NC2CCCCNC2=O)cc1 (stereo unspecified),40.5%,"2.91 µM [rising, partial curve]","5.8 µM [rising, full curve]"
CCOC(=O)c1c(C)[nH]c(NC(=O)NNC(=O)c2ccc(OC)cc2)c1C,1.87%,–,"18.4 µM [rising, partial curve, poor fit]"
CC(C)c1ccc(NC(=O)C(c2ccc3c(c2)OCO3)N2CCN(C(=O)c3ccco3)CC2)cc1 (stereo unspecified),-24.3%,–,"29.1 µM [falling, single point]"
O=C(COC(=O)/C=C/c1ccc(Cl)cc1Cl)Nc1ccc2c(c1)OCCO2,163%,–,–
O=C1CN(CC(=O)Nc2cccc(Cl)c2Cl)c2ccccc2N1,–,"0.731 µM [rising, single point]",–
COc1ccccc1C(=O)Nc1nnc(S(=O)(=O)N(C)Cc2ccccc2)s1,19.8%,–,–
COc1c(Cl)ccc(Cl)c1C(=O)NC(=O)N1CCOCC1,2.69%,–,"0.0058 µM [falling, full curve, poor fit]"
COc1ccc(CCNC(=O)CN(C)S(=O)(=O)c2cccs2)cc1,-10.1%,–,"0.00411 µM [rising, full curve, poor fit]"
COCCNC(=O)C1=NOC(Cn2cc(C#N)c(=O)n(C)c2=O)C1 (stereo unspecified),0.342%,–,–
CCCN1CCC(=O)N([C@H](COc2ccccc2)Cc2ccccc2)CC1,8.98%,–,–
OCC1(Cc2cccc(Cl)c2)CCCN(Cc2sc(N3CCCC3)nc2Cl)C1 (stereo unspecified),-21.2%,–,–
Cc1cc(N2CCCCC2)nc2ccccc12,19%,–,–
COc1ccc(COC(=O)N/N=C(\C)CC(=O)Nc2c(C)cc(C)cc2C)cc1,-5.82%,"0.82 µM [rising, partial curve, poor fit]","3.26 µM [rising, partial curve, poor fit]"
OC1CCN(c2c3c(nc4cc(-c5ccc(F)cc5)nn24)CCC3)CC1,13.2%,–,"11.6 µM [rising, single point]"
CC1CCCCN1C(=O)CN1CCC(c2nc3ccc(Cl)cc3[nH]2)CC1 (stereo unspecified),12.3%,–,–
CCc1ccc(S(=O)(=O)NCCc2csc(-c3ccccc3)n2)s1,–,"6.51 µM [rising, single point]",–
COc1ccc(NC(=O)CNC(=O)c2cccs2)cc1Cl,-7.96%,–,"29.1 µM [falling, single point]"
COc1ccc(N2CCN(S(=O)(=O)CCNC(=O)/C=C/c3ccc4c(c3)OCO4)CC2)cc1,–,"3.66 µM [rising, single point]",–
C=CCC(C=C)S(=O)(=O)c1ccc(C)cc1 (stereo unspecified),33.7%,"14.6 µM [rising, single point]",–
Cc1cc(C)c2nc(SCC(=O)N(C)C3CCS(=O)(=O)C3)cc(C)c2c1 (stereo unspecified),43%,–,–

# Random excerpt: 6 entries already listed
SMILES,cell number change,AC50 [1],AC50 [2]
CCCN1CCC(=O)N([C@H](COc2ccccc2)Cc2ccccc2)CC1,8.98%,–,–
Cc1ccc(C(=O)NC2CCCCNC2=O)cc1 (stereo unspecified),40.5%,"2.91 µM [rising, partial curve]","5.8 µM [rising, full curve]"
O=C(COC(=O)/C=C/c1cccc([N+](=O)[O-])c1)NCC1CCCO1 (stereo unspecified),-40.3%,"14.6 µM [falling, partial curve]",–
CC(=O)c1cccc(NC(=S)NNC(=O)c2ccc(C)c([N+](=O)[O-])c2)c1,123%,"29.1 µM [rising, single point]",–
CC1CCCCN1C(=O)CN1CCC(c2nc3ccc(Cl)cc3[nH]2)CC1 (stereo unspecified),12.3%,–,–
COc1ccc(COC(=O)N/N=C(\C)CC(=O)Nc2c(C)cc(C)cc2C)cc1,-5.82%,"0.82 µM [rising, partial curve, poor fit]","3.26 µM [rising, partial curve, poor fit]"

# (further entries)

SMILES,cell number change,AC50 [1],AC50 [2]
CC(C)(C)c1nc2scc(-c3ccc(Cl)cc3)c2c(=O)o1,-8.13%,–,"13 µM [falling, partial curve]"
COc1ccc(CCN2C(=O)C3C(C2=O)C2C=CC3C23CC3)cc1OC (stereo unspecified),–,–,"0.259 µM [rising, partial curve, poor fit]"
CCCCc1ccc(NC(=O)Nc2cnccn2)cc1,28.6%,–,"35.5 µM [rising, partial curve, poor fit]"
CN(C)C(=O)c1cccn1-c1ncc(C(F)(F)F)cc1Cl,-21.1%,–,–
O=C(NNS(=O)(=O)c1ccccc1)Nc1ccc(F)cc1,-10.2%,–,"4.61 µM [rising, partial curve]"
N#C/C(=C\c1ccccc1)C(=O)NCc1ccc(F)cc1,14%,–,"29.1 µM [falling, single point]"
COc1ccc2no[n+]([O-])c2c1,-12.5%,"0.00461 µM [falling, full curve, poor fit]",–
O=C1c2ccccc2C(=O)N1c1ccccc1S(=O)C(F)(F)F (stereo unspecified),19.2%,"0.0411 µM [rising, full curve, poor fit]","0.00517 µM [falling, full curve, poor fit]"
COC(=O)c1ccc(C)c(NC(=O)CSc2sc3c(O)cc(=O)[nH]c3c2C#N)c1,18.3%,–,–
COc1ccc(N(CC(=O)NC2CCCC2)C(=O)Cn2nnc(-c3ccc(C)cc3)n2)cc1OC,-13.3%,–,"29.1 µM [rising, single point]"
O=[N+]([O-])c1cc([N+](=O)[O-])c(N2CCOCC2)cc1NCc1ccccc1,91.2%,"18.4 µM [rising, single point]",–
COc1ccc(CN2CCN(C(=O)c3ccc(S(=O)(=O)NCc4ccco4)cc3)CC2)cc1F,50.6%,"14.6 µM [rising, partial curve]",–
O=C(CSc1ccccn1)N/N=C/c1c[nH]c2ccccc12,9.29%,–,–
COc1ccc(-c2[nH]c(-c3ccc4c(c3)OCO4)nc2-c2ccccc2)cc1,-12.5%,–,"29.1 µM [rising, single point]"
Oc1ccc(N=Nc2ccc3c(c2)OCCO3)c2ncccc12,-57.8%,"29.1 µM [falling, single point]","32.6 µM [falling, single point]"
FC(F)(F)c1nnc2c(Sc3ccccc3)nc3ccc(Cl)cc3n12,–,–,"0.58 µM [rising, single point]"
C[C@H]1CN=C(N(C)C)N1CCc1ccc(F)cc1,-3.17%,–,"29.1 µM [rising, single point]"
COc1ccc2c(C)cc(SCC(=O)Nc3cc(C(N)=O)cc(C(N)=O)c3)nc2c1,-53.8%,–,"29.1 µM [falling, single point]"
CC(=O)c1ccc2c(c1)N(CCCN1CCC(CCO)CC1)c1ccccc1S2,6.24%,–,"2.91 µM [rising, partial curve, poor fit]"
O=C(NC(=S)Nc1ccc2oc(=O)ccc2c1)c1cc2ccccc2o1,22.8%,–,"6.51 µM [rising, full curve]"
CCOC(=O)c1sc2nc(C)n(N)c(=O)c2c1C,28.3%,–,–
CSc1nnc(-c2ccc(S(=O)(=O)N3CCCCC3)cc2)o1,3.97%,"1.3 µM [rising, partial curve]",–

SMILES,cell number change,AC50 [1],AC50 [2]
O=C(O)c1cccc(Nc2ccc([N+](=O)[O-])c3nonc23)c1,11.7%,–,"16.4 µM [rising, single point]"
COc1ccc2c(c1)OC[C@H]1[C@H]2N2C(=O)c3cc(Cl)ccc3NC(=O)[C@@]2(C)[C@H]1c1ccccc1,5.81%,–,–
O=C(C1CCN(S(=O)(=O)c2cccs2)CC1)N1CCN(Cc2ccccc2)CC1,6.8%,–,–
O=C(Cc1ccc([N+](=O)[O-])cc1)OCc1c(F)cccc1Cl,-8.45%,–,"6.51 µM [falling, single point]"
CCOC(=O)c1c(C)[nH]c(C)c1C(=O)CSc1nncs1,–,"0.461 µM [rising, full curve]",–
COc1cc(OC)c(CN2CCN(c3ccc(F)cc3)CC2)cc1Br,9.03%,–,"29.1 µM [rising, single point]"
CCCn1c(NC(=O)C23CC4CC(CC(O)(C4)C2)C3)nc2ccccc21,–,–,"0.13 µM [rising, full curve, poor fit]"
Cc1ccc(C(=O)C2=C(O)C(=O)N(c3ncccn3)C2c2ccc(F)cc2)o1 (stereo unspecified),36.5%,"23.1 µM [rising, single point]","20.6 µM [rising, partial curve]"
COc1ccc(N2CC(C(=O)N[C@@H](C)C(=O)NC3CCCC3)CC2=O)cc1 (stereo partly specified),41%,"1.16 µM [rising, partial curve]","29.1 µM [rising, single point]"
Cc1ccc(OCC(=O)N/N=C\c2ccc(O)cc2)c([N+](=O)[O-])c1,25%,–,–
CC(=O)Nc1ccc2c(c1)nc1n2CCN(C(C)c2ccccc2)C1 (stereo unspecified),6.25%,–,"2.91 µM [rising, single point]"
CC(=O)Nc1ccc(S(=O)(=O)NCCC(=O)OCC(=O)c2cc(C)ccc2C)cc1,27%,–,"0.731 µM [rising, partial curve]"
COc1ccc(Br)c(C(=O)OCC(=O)NC2CCCCCC2)c1,-25.7%,–,"6.51 µM [falling, partial curve, poor fit]"
O=C(c1ccccc1NS(=O)(=O)c1ccc(Br)s1)N1CCCC1,-16.4%,–,–
O=C(c1cc2cc(Br)ccc2o1)N1CCCCC1,15.3%,"1.16 µM [falling, full curve]","0.651 µM [falling, full curve]"
CN1CC=C2C(C#N)=C(N)C(C#N)(C#N)[C@H](c3cccc(Cl)c3)C2C1 (stereo partly specified),59.8%,"0.731 µM [rising, full curve]","0.82 µM [rising, full curve]"
CC(C)NS(=O)(=O)c1ccc(OCC(=O)N(C)Cc2ccccc2)cc1,-14.3%,–,"6.51 µM [falling, partial curve]"
C=CCc1c(C)nc(SC)nc1Nc1ccccc1,-4.85%,"0.291 µM [falling, partial curve]","0.82 µM [falling, partial curve]"
CCCCCCN1C=CC(=C/C=C(\C#N)C(=O)OCC)C=C1,-10.8%,"2.59 µM [rising, partial curve, poor fit]","20.6 µM [falling, single point]"
COc1ccc(CCN(C)C(=O)C23CC4CC(CC(Cl)(C4)C2)C3)cc1OC,-3.18%,"0.259 µM [rising, partial curve, poor fit]","29.1 µM [rising, single point]"
